Results published in patent US20040038338A1, “Influence of LRP cytoplasmic domain on Abeta production” (priority 2001, published 2004).
Results are given in words; binding and its absence hold for the method and conditions named. Some binding calls cover weakened binding; strength is not graded here.

By UniProt entry, the sequences of proteins in these tests, tags left out. Residues count along the entry.
UniProt Q07954, residues 4445-4544: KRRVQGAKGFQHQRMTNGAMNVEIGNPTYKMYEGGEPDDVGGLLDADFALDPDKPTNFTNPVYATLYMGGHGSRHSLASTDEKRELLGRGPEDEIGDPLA

Molecular target: T1, Fe65 (UniProt O00213)
T1 sequence (looked up): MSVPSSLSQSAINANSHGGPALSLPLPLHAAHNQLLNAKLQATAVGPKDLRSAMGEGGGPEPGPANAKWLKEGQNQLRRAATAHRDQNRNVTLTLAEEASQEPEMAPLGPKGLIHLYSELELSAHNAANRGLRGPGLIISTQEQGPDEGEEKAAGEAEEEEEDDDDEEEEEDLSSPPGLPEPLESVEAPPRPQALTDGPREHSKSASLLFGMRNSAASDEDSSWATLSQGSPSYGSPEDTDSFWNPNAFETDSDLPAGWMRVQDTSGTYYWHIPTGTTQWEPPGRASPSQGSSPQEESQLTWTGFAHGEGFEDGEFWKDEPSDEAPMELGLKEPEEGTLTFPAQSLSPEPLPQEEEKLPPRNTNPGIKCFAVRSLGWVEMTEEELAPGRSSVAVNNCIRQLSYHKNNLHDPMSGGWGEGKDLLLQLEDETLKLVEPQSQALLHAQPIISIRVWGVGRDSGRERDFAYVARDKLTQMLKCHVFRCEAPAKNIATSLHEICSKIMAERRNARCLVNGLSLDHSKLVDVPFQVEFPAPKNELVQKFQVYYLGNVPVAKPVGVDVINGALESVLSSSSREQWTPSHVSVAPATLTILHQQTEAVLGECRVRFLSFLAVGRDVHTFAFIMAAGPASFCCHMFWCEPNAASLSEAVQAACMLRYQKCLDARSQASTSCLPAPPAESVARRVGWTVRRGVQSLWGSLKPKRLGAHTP
Assay: GST pull down of in vitro translated Fe65; wild type tail is the reference

**Q.** For “GST fusion protein encoding the last 100 amino acids of LRP (entire cytoplasmic tail), wild type (from UniProt Q07954 4445-4544)”, which binding is on record?
**A.** binds
